According to patent US12392768B2, “Methods for determining blood gas or metabolic parameters” (RADIOMETER MEDICAL APS, priority 2019, dated 2025):
Counter-ions that a name gives are not always drawn.

Assay: Anti-platelet drug interference test on ABL90 parameters (Example 5)
Settings: for interference on assessed ABL parameters: at the tested concentrations in heparinized blood; for Fraction of maximum interference, Ca^2+ (mmol/L): max. allowed interference 0.02 mmol/L; for Fraction of maximum interference, Ca^2+ (mmol/L) / Fraction of maximum interference, tBil (μmol/L) / Fraction of maximum interference, Glu (mmol/L) / Fraction of maximum interference, Lac (mmol/L) / Fraction of maximum interference, K^+ (mmol/L) / Fraction of maximum interference, Na^+ (mmol/L) / Fraction of maximum interference, tHb (g/dL) / Fraction of maximum interference, COHb (%) / Fraction of maximum interference, MetHb (%): eptifibatide 20 μM, tirofiban 1 μM, iloprost 100 nM or 1 μM, MgSO4 12 mM; for Fraction of maximum interference, tBil (μmol/L): max. allowed interference 30 μmol/L; for Fraction of maximum interference, Glu (mmol/L) / Fraction of maximum interference, Lac (mmol/L): max. allowed interference 0.1 mmol/L; for Fraction of maximum interference, K^+ (mmol/L): max. allowed interference <0.1 mmol/L; for Fraction of maximum interference, Na^+ (mmol/L): max. allowed interference <1 mmol/L; for Fraction of maximum interference, tHb (g/dL): max. allowed interference <0.5 g/dL; for Fraction of maximum interference, COHb (%) / Fraction of maximum interference, MetHb (%): max. allowed interference <1%

| Compound | interference on assessed ABL parameters | Fraction of maximum interference, Ca^2+ (mmol/L) | Fraction of maximum interference, tBil (μmol/L) | Fraction of maximum interference, Glu (mmol/L) | Fraction of maximum interference, Lac (mmol/L) | Fraction of maximum interference, K^+ (mmol/L) | Fraction of maximum interference, Na^+ (mmol/L) | Fraction of maximum interference, tHb (g/dL) | Fraction of maximum interference, COHb (%) | Fraction of maximum interference, MetHb (%) |
| --- | --- | --- | --- | --- | --- | --- | --- | --- | --- | --- |
| CC#CCC(C)[C@H](O)/C=C/[C@@H]1[C@H]2C/C(=C/CCCC(=O)O)C[C@H]2C[C@H]1O (stereo partly drawn) [Iloprost, iloprost] | no interference | 0.1 | 0.013 | 0.86 | 0.62 | 0.18 | 0.14 | 0.12 | 0.08 | 0.04 |
| O=S(=O)([O-])[O-].[Mg+2] [MgSO4] | shows interference | 2.7 | 0.140 | 0.2 | 4.6 | 2.0 | 5.6 | 0.08 | 0.04 | 0.04 |
| CCCCS(=O)(=O)N[C@@H](Cc1ccc(OCCCCC2CCNCC2)cc1)C(=O)O [Tirofiban, tirofiban hydrochloride monohydrate] | no interference | 0.1 | 0.000 | 0.8 | 0 | 0 | 0 | 0.12 | 0.06 | 0.04 |
| eptifibatide acetate |  | 0.2 | 0.013 | 0 | 0.6 | 0 | 0.4 | 0.04 | 0.02 | 0.08 |
